No constants are given. Whether binding was seen depends on the method and setting. Binding seen in cells or lysates may run through a third protein. Here binding means that the protein was enriched with, or labelled near, the bait; the list need not be complete.

The chains behind the UniProt entries cited, without tags or fusion partners. Residues count along the entry.
UniProt Q9R0P9: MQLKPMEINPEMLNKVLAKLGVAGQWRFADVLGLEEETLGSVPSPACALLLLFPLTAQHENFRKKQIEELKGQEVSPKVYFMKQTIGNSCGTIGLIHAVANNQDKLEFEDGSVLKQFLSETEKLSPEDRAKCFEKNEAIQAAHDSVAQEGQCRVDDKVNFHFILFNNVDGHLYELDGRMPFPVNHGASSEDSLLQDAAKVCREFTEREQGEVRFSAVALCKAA
UniProt P20029, residues 20-655: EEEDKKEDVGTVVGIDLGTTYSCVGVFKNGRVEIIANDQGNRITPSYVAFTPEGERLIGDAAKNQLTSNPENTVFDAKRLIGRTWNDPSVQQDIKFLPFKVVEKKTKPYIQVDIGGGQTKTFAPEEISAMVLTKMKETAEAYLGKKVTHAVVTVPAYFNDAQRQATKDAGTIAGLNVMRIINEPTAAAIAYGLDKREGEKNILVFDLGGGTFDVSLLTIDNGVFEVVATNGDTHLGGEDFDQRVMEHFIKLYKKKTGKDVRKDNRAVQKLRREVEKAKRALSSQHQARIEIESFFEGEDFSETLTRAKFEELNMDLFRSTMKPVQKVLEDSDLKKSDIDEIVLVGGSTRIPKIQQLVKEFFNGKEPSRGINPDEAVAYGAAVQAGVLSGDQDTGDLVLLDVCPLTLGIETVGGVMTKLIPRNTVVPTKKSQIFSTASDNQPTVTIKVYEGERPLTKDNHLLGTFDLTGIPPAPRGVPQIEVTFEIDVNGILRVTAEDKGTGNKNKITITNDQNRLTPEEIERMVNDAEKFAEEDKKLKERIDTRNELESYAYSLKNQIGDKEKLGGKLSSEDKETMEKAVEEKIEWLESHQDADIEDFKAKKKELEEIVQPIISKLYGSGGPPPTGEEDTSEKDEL

The target in the assay is Ubiquitin C-terminal hydrolase L1 (mouse (endogenous in cardiac fibroblasts of C57BL/6 mice)) (UniProt Q9R0P9). As to the kind of experiment: affinity purification with mass spectrometry; IP of endogenous UCHL1 from lysate of TGF-β1-induced CFs (Pierce Classic Magnetic IP/Co-IP Kit, protein A/G magnetic beads, 4 °C), eluate on SDS-PAGE, gel lanes to Orbitrap Elite mass spectrometry; candidates with number of PSMs > 20.

For “glucose-regulated protein of 78 kDa (from UniProt P20029 20-655)”, the binding result was “binds”.

(Values after publication PMC7326919.)
